The source of these data is the supplement of paper PMC9135407.

This assay concerns primary human hepatic stellate cells (donor 1). Nature of the assay: percent Bodipy-positive cells; higher = more lipid droplet accumulation. As to conditions: 48 h.
Where [1] appears, read: library stock concentration: 3.33 mM.
Where [2] appears, read: library stock concentration: 10 mM.
Setting [3] is: library stock concentration: 1 mM.
Setting [4] is: library stock concentration: 80 uM.

Where “and” joins values, the source holds several entries; their conditions need not be identical. Equal entries are not always repeated. Structures can show the parent of a compound that is named as a salt. ± gives the standard deviation of the averaged measurements. The list shows a part of the results. Part of the spread comes from offsets between plates or batches.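 Assay uses culture-activated primary human stellate myofibroblasts; lipid droplet recovery indicates inactivation. Measured: proportion of Hoechst-counted cells over a plate-specific Bodipy cutoff, duplicate wells, DMSO and nortriptyline as per-plate negative and positive controls. A hit scores, control-normalized, above the plate's top-tenth-percentile nortriptyline wells or ranks among its three best wells. Final well concentrations not reported.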

In the case of `COc1cc(/C=C/C(=O)N2CCN(CC(=O)N3CCCC3)CC2)cc(OC)c1OC` [Cinepazide maleate], the “percent Bodipy-positive cells” value was 12.1 ± 0.91% under setting [1] and 11.8 ± 3.1% under setting [2].
Regarding `CCCCC[C@H](O)/C=C/[C@@H]1[C@@H](C/C=C\CCCC(=O)N(CC)CC)[C@@H](O)C[C@H]1O` [Prostaglandin F2.alpha. diethyl amide], the “percent Bodipy-positive cells” value under setting [3] was 9.82 ± 2.1%.
Take `O=C(Nc1ccc(OC(F)(F)F)cc1)c1sccc1NCc1ccnc2ccccc12`: the “percent Bodipy-positive cells” value is 8.92 ± 2.9% under setting [4]; 10.11 ± 0.045% (library stock concentration: 400 uM); 16.5 ± 10% (library stock concentration: 2 mM); 22.1 ± 8.7% under setting [1]; 23.6% and 18.6% under setting [2].
With `Cn1c(=O)cc(N2CCC[C@@H](N)C2)n(Cc2cc(F)ccc2C#N)c1=O` [Trelagliptin], the “percent Bodipy-positive cells” value is 25.75 ± 0.2% under setting [1] and 36.1 ± 6.1% under setting [2].
In the case of `CN(C)CCC(c1ccc(Cl)cc1)c1ccccn1` (single isomer, unassigned; (+)) [(+)-Chlorpheniramine maleate], under setting [2], the “percent Bodipy-positive cells” value was 83.29 ± 0.34%.
With `COc1cc2nc(N3CCCN(C)CC3)nc(NC3CCN(Cc4ccccc4)CC3)c2cc1OC.Cl.Cl.Cl.O`, under setting [3], the “percent Bodipy-positive cells” value is 99.81 ± 0.27%.
Regarding `O=C(N[C@@H](Cc1ccccc1)C(=O)CCl)OCc1ccccc1` [Z-L-Phe chloromethyl ketone], under setting [2], the “percent Bodipy-positive cells” value worked out at 97.57 ± 0.53%.
As for `Cc1cc2c(cc1Cl)N(C(=O)Nc1ccc(Oc3cccnc3C)nc1)CC2`, the “percent Bodipy-positive cells” value under setting [2] came out at 89.2 ± 9.2%.
As to `Cc1scc2c1N(C(=O)CN1CCN(C)CC1)c1ccccc1NC2=O` [Telenzepine dihydrochloride], the “percent Bodipy-positive cells” value worked out at 26.8 ± 2.1%. Moreover, the “percent Bodipy-positive cells” value under setting [2] was 25.8% and 9.65%.
With `Cc1scc2c1N(C(=O)CN1CCN(C)CC1)c1ccccc1NC2=O` [Telenzepine 2HCl], under “library stock concentration: 5.4 mM”, the “percent Bodipy-positive cells” value was 9.81 ± 0.55%.
As for `Cc1scc2c1N(C(=O)CN1CCN(C)CC1)c1ccccc1NC2=O` [Telenzepine hydrochloride], the “percent Bodipy-positive cells” value under setting [2] worked out at 39.1 ± 5.2%.
With `C=C1c2cccc(O)c2C(=O)C2=C(O)[C@]3(O)C(=O)C(C(N)=O)=C(O)[C@@H](N(C)C)[C@@H]3[C@@H](O)[C@H]12` [Methacycline hydrochloride], the “percent Bodipy-positive cells” value is 5.25 ± 0.28%. Also, under setting [2], the “percent Bodipy-positive cells” value amounted to 18.8 ± 4.3%.
Turning to `C#CCOc1ccccc1CCCCCC(=O)NS(C)(=O)=O`, the “percent Bodipy-positive cells” value under setting [3] was found to be 7.72 ± 0.094%.
Consider `c1ccc(C2CN3CCSC3=N2)cc1` (stereo unspecified) [Tetramisole hydrochloride], for which the “percent Bodipy-positive cells” value turned out to be 31.3 ± 2.7%. Besides, under setting [2], the “percent Bodipy-positive cells” value amounted to 17.1 ± 6%.
Turning to `c1ccc(C2CN3CCSC3=N2)cc1` (stereo unspecified), the “percent Bodipy-positive cells” value under setting [2] came to 29.2 ± 2.3%.
Take `COc1cc2cc3c4cc(OC)c(OC)cc4cc[n+]3c(C)c2cc1OC` [Coralyne chloride hydrate]: the “percent Bodipy-positive cells” value is 20.1 ± 3.1%.
Take `COc1cc2cc3c4cc(OC)c(OC)cc4cc[n+]3c(C)c2cc1OC` [Coralyne chloride]: under setting [2], the “percent Bodipy-positive cells” value is 19 ± 2.7%.
Turning to `Cn1c(=O)c2nc[nH]c2n(C)c1=O` [Theophylline monohydrate], the “percent Bodipy-positive cells” value was determined as 9.5 ± 7%.
`Cn1c(=O)c2nc[nH]c2n(C)c1=O` [Theophylline]: the “percent Bodipy-positive cells” value under setting [2] is 24.2% and 13.1% and 30%.
Still for that read-out and setting: as for `CC(C)(C)NC[C@H](O)COc1nsnc1N1CCOCC1` [(S)-Timolol maleate], the figure is 6.62 ± 2.1%.
On to `CC(C)(C)NC[C@H](O)COc1nsnc1N1CCOCC1` [Timolol Maleate], for which the “percent Bodipy-positive cells” value is 14.5 ± 5.2% under setting [1] and 23.8 ± 9.3% under setting [2].
For `CC(C)(C)NC[C@H](O)COc1nsnc1N1CCOCC1` [Timolol maleate (s)], the “percent Bodipy-positive cells” value (library stock concentration: 6.3 mM) turned out to be 10.8 ± 4.5%.
Take `CC(C)(C)NC[C@H](O)COc1nsnc1N1CCOCC1` [S(-)-Timolol maleate]: under setting [2], the “percent Bodipy-positive cells” value was 14.6% and 34%.
Still for that read-out and setting: next, `CC(C)(C)NC[C@H](O)COc1nsnc1N1CCOCC1` [Timolol maleate]: 16 ± 2.6%.
Turning to `CC(C)(C)NC[C@H](O)COc1nsnc1N1CCOCC1` [Timolol maleate salt], the “percent Bodipy-positive cells” value worked out at 10.2 ± 3.7%.
For the compound `C[C@]12CCC(=O)C=C1CC[C@@H]1[C@@H]2[C@@H](O)C[C@@]2(C)[C@H]1CC[C@]2(O)C(=O)COC(=O)CCC(=O)O` [Hydrocortisone hemisuccinate], under setting [2], the “percent Bodipy-positive cells” value was determined as 10.2 ± 2.1%.
`C[C@]12CCC(=O)C=C1CC[C@@H]1[C@@H]2[C@@H](O)C[C@@]2(C)[C@H]1CC[C@]2(O)C(=O)COC(=O)CCC(=O)O`: the “percent Bodipy-positive cells” value under setting [2] is 17.8 ± 0.41%.
`Cc1ccc(C(=O)Nc2ccc(CN3CCN(C)CC3)c(C(F)(F)F)c2)cc1C#Cc1cnc2cccnn12`: the “percent Bodipy-positive cells” value under setting [4] turned out to be 50.7 ± 1.3% and the “percent Bodipy-positive cells” value under setting [2] was found to be 100%.
Turning to `O=C(Nc1cccc2c(=O)cc(-c3nnn[nH]3)oc12)c1ccc(OCCCCc2ccccc2)cc1` [Pranlukast], the “percent Bodipy-positive cells” value under setting [3] came out at 15.9 ± 12%, the “percent Bodipy-positive cells” value under setting [1] was determined as 7.95 ± 4.2% and the “percent Bodipy-positive cells” value under setting [2] is 18.1 ± 5%.
On to `c1ccc2c(c1)CCC[C@H]2Nc1nc2ccccc2[nH]1` [NS8593 hydrochloride], for which, under setting [2], the “percent Bodipy-positive cells” value is 61.5 ± 2.6%.
As for `NCCCC[C@H](N[C@@H](CCc1ccccc1)C(=O)O)C(=O)N1CCC[C@H]1C(=O)O` [Lisinopril], the “percent Bodipy-positive cells” value stood at 34.9 ± 16%. Moreover, the “percent Bodipy-positive cells” value (library stock concentration: 4.9 mM) is 14.4% and 12.1%. In addition, the “percent Bodipy-positive cells” value under setting [2] stood at 16.6 ± 5.4%.
Turning to `NC1(C(=O)O)CCCC1` [Cycloleucine], the “percent Bodipy-positive cells” value under setting [2] worked out at 40.6 ± 17%.
Still for that read-out and setting: as for `COc1ccc(NC(=O)c2ccc(-c3ccc(-c4noc(C)n4)cc3C)cc2)cc1OCCN(C)C`, the figure is 95.5 ± 2.1%; as for `FC(F)(F)c1ccccc1-n1ccnc1` [1-[2-(Trifluoromethyl)phenyl]imidazole], 13.1 ± 4.5%.
For the compound `O=C(c1cccc(Cl)c1F)N1CCN(Cc2cccc(Nc3nccs3)n2)CC1`, the “percent Bodipy-positive cells” value runs as follows: under setting [1], 14.9 ± 1.2%; under setting [2], 68.9 ± 11%.
In the same order, the values of `CC(C)[C@H]1C(=O)N[C@@H](CCCNC(=N)N)C(=O)NCC(=O)N[C@@H](CC(=O)O)C(=O)N[C@H](Cc2ccccc2)C(=O)N1C` [Cilengitide] are 29.8 ± 3.1% and 77 ± 7.8%.
With `CSc1ccc2c(c1)C(N1CCN(C)CC1)Cc1ccccc1S2.O=C(O)/C=C\C(=O)O` (stereo unspecified) [Methiothepin maleate], the “percent Bodipy-positive cells” value under setting [2] was determined as 94.461 ± 0.055%.
With `CCCCOC(=O)NS(=O)(=O)c1sc(CC(C)C)cc1-c1ccc(Cn2c(CC)nc3c(C)cc(C)nc32)cc1`, the “percent Bodipy-positive cells” value under setting [2] is 50 ± 3%.
Turning to `Cl.C(=C\CCNC)(/c1c(cccc1)CC2)\c3c2cccc3` [Nortriptyline hydrochloride], the “percent Bodipy-positive cells” value was determined as 88.4 ± 4.2%.
